The assay has as its target T1, Flag-Plek2 (UniProt Q9WV52).
T1 sequence: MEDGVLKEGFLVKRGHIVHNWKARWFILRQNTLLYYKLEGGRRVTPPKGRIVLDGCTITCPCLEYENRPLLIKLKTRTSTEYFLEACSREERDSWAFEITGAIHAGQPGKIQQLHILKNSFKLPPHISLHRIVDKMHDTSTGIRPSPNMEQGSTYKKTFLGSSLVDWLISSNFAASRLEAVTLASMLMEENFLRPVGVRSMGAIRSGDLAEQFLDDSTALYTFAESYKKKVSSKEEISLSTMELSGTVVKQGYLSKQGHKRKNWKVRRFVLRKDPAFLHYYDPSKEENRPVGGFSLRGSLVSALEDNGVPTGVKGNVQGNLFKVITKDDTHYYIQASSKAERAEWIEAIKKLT
Kind of assay: co-IP; IP with anti-FLAG magnetic beads from lysate of 293T cells transfected with Flag-Plek2, Western blot; also after 20 uM NUP-17d for 2 hours.

The chains behind the UniProt entries cited, without tags or fusion partners.
UniProt P0DMV8: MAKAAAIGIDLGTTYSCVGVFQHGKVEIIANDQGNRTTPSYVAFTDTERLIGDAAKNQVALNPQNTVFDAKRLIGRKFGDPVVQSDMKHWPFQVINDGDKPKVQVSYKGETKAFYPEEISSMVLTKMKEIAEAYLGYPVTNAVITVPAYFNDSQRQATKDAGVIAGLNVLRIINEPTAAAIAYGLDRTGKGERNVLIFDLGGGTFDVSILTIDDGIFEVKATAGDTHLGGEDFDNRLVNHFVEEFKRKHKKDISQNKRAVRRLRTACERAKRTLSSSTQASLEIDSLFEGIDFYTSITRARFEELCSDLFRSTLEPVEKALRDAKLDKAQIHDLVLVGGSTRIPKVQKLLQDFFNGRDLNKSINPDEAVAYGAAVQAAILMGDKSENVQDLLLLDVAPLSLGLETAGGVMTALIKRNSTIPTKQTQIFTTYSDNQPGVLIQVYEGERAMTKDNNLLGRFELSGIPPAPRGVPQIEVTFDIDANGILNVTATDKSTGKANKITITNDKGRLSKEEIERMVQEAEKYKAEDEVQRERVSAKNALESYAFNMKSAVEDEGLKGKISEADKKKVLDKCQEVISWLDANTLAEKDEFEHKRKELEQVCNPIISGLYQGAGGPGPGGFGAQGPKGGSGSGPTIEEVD

Results are given in words; binding and its absence hold for the method and conditions named. In cells and extracts the contact can be indirect. Some entries that bind do so weakly or less than the wild type. Tags and fused reporters may be left off the sequences shown.

Regarding Hsp72 (from UniProt P0DMV8 1-641), the binding entry is recorded as “binds”.

The values above are taken from paper PMC10014099.
